Source: PMC10716047
Results are given in words; binding and its absence hold for the method and conditions named. Binding seen in cells or lysates may run through a third protein. A result given as binding can be weak or reduced; the word gives no strength. For part of these data: Where a sequence is shown, tags or fusion partners need not be part of it.

T1: SMC1A (structural maintenance of chromosomes protein 1A) (human (endogenous in HCT-116 and DLD-1)) (UniProt Q14683)
T1 sequence: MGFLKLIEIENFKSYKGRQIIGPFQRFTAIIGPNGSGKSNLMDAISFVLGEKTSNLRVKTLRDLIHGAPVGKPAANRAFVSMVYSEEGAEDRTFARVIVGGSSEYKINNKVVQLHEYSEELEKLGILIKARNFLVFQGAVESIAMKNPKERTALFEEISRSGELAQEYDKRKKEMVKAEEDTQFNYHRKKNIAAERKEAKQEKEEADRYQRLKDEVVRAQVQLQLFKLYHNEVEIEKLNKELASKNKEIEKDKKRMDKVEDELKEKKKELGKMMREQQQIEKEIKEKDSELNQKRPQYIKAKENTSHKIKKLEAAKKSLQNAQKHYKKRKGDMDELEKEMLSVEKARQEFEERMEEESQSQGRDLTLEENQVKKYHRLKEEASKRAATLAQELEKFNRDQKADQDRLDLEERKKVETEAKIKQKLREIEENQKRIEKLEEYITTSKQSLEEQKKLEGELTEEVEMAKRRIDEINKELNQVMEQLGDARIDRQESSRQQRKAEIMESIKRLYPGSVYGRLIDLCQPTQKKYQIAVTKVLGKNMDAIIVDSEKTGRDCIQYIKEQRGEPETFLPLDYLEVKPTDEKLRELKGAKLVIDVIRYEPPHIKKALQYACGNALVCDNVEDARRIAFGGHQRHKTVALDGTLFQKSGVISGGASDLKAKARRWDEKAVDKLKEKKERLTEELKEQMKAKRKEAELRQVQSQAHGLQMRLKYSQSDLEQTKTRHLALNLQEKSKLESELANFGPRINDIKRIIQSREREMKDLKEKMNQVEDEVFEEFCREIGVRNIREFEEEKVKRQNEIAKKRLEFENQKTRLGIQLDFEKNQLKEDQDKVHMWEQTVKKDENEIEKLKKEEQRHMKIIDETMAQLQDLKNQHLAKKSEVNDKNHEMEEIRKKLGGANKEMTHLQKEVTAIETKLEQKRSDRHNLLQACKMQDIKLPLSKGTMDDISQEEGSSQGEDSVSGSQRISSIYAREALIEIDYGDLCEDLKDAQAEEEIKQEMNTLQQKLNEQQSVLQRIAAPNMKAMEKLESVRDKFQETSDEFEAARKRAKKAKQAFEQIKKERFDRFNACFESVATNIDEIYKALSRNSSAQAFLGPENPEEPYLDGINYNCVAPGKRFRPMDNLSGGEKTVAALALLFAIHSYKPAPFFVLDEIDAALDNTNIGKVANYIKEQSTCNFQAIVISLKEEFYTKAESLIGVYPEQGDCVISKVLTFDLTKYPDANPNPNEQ


Molecular target: FLAG-tagged wild-type SMIMP (human)
Test: co-IP; HEK293FT cells cotransfected with HA-tagged SMC1A (wild type or truncation) and FLAG-tagged SMIMP (wild type or deletion mutant), lysates immunoprecipitated with anti-FLAG antibody, immunoblot

Row | Molecule | binding
1 | HA-tagged SMC1A truncation mutant S1 (amino acids 1–240) (domain or fragment, UniProt Q14683 1-240) MGFLKLIEIENFKSYKGRQIIGPFQRFTAIIGPNGSGKSNLMDAISFVLGEKTSNLRVKTLRDLIHGAPVGKPAANRAFVSMVYSEEGAEDRTFARVIVGGSSEYKINNKVVQLHEYSEELEKLGILIKARNFLVFQGAVESIAMKNPKERTALFEEISRSGELAQEYDKRKKEMVKAEEDTQFNYHRKKNIAAERKEAKQEKEEADRYQRLKDEVVRAQVQLQLFKLYHNEVEIEKLNK | binds
2 | HA-tagged SMC1A truncation mutant S5 (amino acids 1,013–1,233) (domain or fragment, UniProt Q14683 1013-1233) QQSVLQRIAAPNMKAMEKLESVRDKFQETSDEFEAARKRAKKAKQAFEQIKKERFDRFNACFESVATNIDEIYKALSRNSSAQAFLGPENPEEPYLDGINYNCVAPGKRFRPMDNLSGGEKTVAALALLFAIHSYKPAPFFVLDEIDAALDNTNIGKVANYIKEQSTCNFQAIVISLKEEFYTKAESLIGVYPEQGDCVISKVLTFDLTKYPDANPNPNEQ | binds
3 | HA-tagged SMC1A truncation mutant S2 (amino acids 241–507) (domain or fragment, UniProt Q14683 241-507) ELASKNKEIEKDKKRMDKVEDELKEKKKELGKMMREQQQIEKEIKEKDSELNQKRPQYIKAKENTSHKIKKLEAAKKSLQNAQKHYKKRKGDMDELEKEMLSVEKARQEFEERMEEESQSQGRDLTLEENQVKKYHRLKEEASKRAATLAQELEKFNRDQKADQDRLDLEERKKVETEAKIKQKLREIEENQKRIEKLEEYITTSKQSLEEQKKLEGELTEEVEMAKRRIDEINKELNQVMEQLGDARIDRQESSRQQRKAEIMESI | no binding
4 | HA-tagged SMC1A truncation mutant S3 (amino acids 508–747) (domain or fragment, UniProt Q14683 508-747) KRLYPGSVYGRLIDLCQPTQKKYQIAVTKVLGKNMDAIIVDSEKTGRDCIQYIKEQRGEPETFLPLDYLEVKPTDEKLRELKGAKLVIDVIRYEPPHIKKALQYACGNALVCDNVEDARRIAFGGHQRHKTVALDGTLFQKSGVISGGASDLKAKARRWDEKAVDKLKEKKERLTEELKEQMKAKRKEAELRQVQSQAHGLQMRLKYSQSDLEQTKTRHLALNLQEKSKLESELANFGPR | no binding
5 | HA-tagged SMC1A truncation mutant S4 (amino acids 748–1,013) (domain or fragment, UniProt Q14683 748-1013) INDIKRIIQSREREMKDLKEKMNQVEDEVFEEFCREIGVRNIREFEEEKVKRQNEIAKKRLEFENQKTRLGIQLDFEKNQLKEDQDKVHMWEQTVKKDENEIEKLKKEEQRHMKIIDETMAQLQDLKNQHLAKKSEVNDKNHEMEEIRKKLGGANKEMTHLQKEVTAIETKLEQKRSDRHNLLQACKMQDIKLPLSKGTMDDISQEEGSSQGEDSVSGSQRISSIYAREALIEIDYGDLCEDLKDAQAEEEIKQEMNTLQQKLNEQ | no binding

Molecular target: T1, SMC1A (structural maintenance of chromosomes protein 1A) (human (endogenous in HCT-116 and DLD-1))
Test: co-IP; whole-cell lysates of HCT-116 and DLD-1 cells stably expressing SMIMP–FLAG, immunoprecipitated with anti-SMC1A antibody (mouse IgG as control), blot with anti-FLAG

Row | Molecule | binding
6 | FLAG-tagged SMIMP (SMC1A-interacting microprotein, encoded by the lncRNA ELFN1-AS1) (human) | binds
